Source: patent publication US20250269045A1 (PHARMAESSENTIA, published 2025)
Results are given in words; binding and its absence hold for the method and conditions named. Some binding calls cover weakened binding; strength is not graded here. Blank lines part the entries; values can stand above or below the binder they belong to.

Molecular target: T1, granulocyte colony-stimulating factor receptor (G-CSFR) (human) (UniProt Q99062)
T1 sequence (looked up): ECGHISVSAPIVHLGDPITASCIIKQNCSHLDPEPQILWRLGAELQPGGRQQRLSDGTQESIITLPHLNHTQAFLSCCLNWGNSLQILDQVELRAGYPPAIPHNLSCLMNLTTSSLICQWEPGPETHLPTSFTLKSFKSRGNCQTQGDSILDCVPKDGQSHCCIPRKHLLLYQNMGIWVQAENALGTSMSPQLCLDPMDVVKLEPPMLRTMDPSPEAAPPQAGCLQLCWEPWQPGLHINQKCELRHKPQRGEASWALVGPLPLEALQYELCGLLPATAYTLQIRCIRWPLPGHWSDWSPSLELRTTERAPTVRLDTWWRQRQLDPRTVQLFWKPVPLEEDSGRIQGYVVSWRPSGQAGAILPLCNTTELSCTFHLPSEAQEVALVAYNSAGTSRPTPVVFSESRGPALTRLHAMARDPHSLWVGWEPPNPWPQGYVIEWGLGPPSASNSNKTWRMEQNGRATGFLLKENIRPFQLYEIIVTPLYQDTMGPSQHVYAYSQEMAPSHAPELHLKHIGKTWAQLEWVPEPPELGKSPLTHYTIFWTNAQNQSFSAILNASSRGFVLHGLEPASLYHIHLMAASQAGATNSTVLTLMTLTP
Experiment: SPR (Biacore CM5), G-CSFR immobilised

- binding: binds
B1: Filgrastim Reference Standard (ligand, human, UniProt P09919-2 31-204, looked up)
chain: TPLGPASSLPQSFLLKCLEQVRKIQGDGAALQEKLCATYKLCHPEELVLLGHSLGIPWAPLSSCPSQALQLAGCLSQLHSGLFLYQGLLQALEGISPELGPTLDTLQLDVADFATTIWQQMEELGMAPALQPTQGAMPAFASAFQRRAGGVLVASHLQSFLEVSYRVLRHLAQP
notes: also called Filgrastim RS

- binding: binds
B2: MetHuG-CSF (ligand)
chain: MTPLGPASSLPQSFLLKCLEQVRKIQGDGAALQEKLCATYKLCHPEELVLLGHSLGIPWAPLSSCPSQALQLAGCLSQLHSGLFLYQGLLQALEGISPELGPTLDTLQLDVADFATTIWQQMEELGMAPALQPTQGAMPAFASAFQRRAGGVLVASHLQSFLEVSYRVLRHLAQP
notes: 175 aa: the 174 aa human G-CSF plus an N-terminal Met; also called MetHuG-CSF intermediate; human G-CSF with additional N-terminal Met
